This test is described as follows: qHTS Assay for Lipid Storage Modulators in Drosophila S3 Cells.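 For cell number change: cells counted by Cell Tracker Red CMTPX staining in the red channel.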 The conditions noted are these: BODIPY lipid droplet fluorescence, 18-24 h; for cell number change: measured here: cell count max response, cells fed with added oleic acid. The method in brief: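 Drosophila S3 cells loaded with oleic acid (400 uM, as added) and compounds at several concentrations; lipid droplets imaged by 488-nm laser-scanning cytometry, 500–530 nm intensity and object ratio to cell channel. Percent activity normalized to 20 uM Triacsin C.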
For orientation: Quantitative high-throughput screening tests each substance at several concentrations.

Setting [1] is: measured here: lipid fluorescence (Fed channel) AC50, cells fed with added oleic acid.
Setting [2] is: measured here: cell number channel AC50, cells fed with added oleic acid.

Some of the results follow. Shown are side measurements of this screen, not its main read-out; they come without a call. The list favours compounds with an active or inconclusive main result. Words in brackets tell the shape of the fitted curve; partial curves, single points and poor fits give uncertain potencies.

For the compound `CC(=O)Nc1ccc(OC(=O)N(C)C)cc1`, the cell number change was 0.223%. Moreover, the AC50 (in general, the concentration at which the activity in the assay is half-maximal) under setting [1] is 0.058 µM [falling, full curve, poor fit].

As for `O=C1CN(C(=O)CN2CCCCC2)C(c2ccccc2)c2cc(Br)ccc2N1` (stereo not given), the cell number change is -28.3%. Besides, the AC50 under setting [1] is 18.4 µM [falling, single point].

On to `C1CC2OC2CC1C1CO1` (stereo not given), for which the cell number change turned out to be 14.6%. In addition, the half-maximal activity concentration (AC50) under setting [1] was 0.00731 µM [falling, full curve, poor fit].

For the compound `COc1ccc(C)cc1NC1=NCCCS1`, the cell number change was -124%. Moreover, the AC50 under setting [2] was 23.1 µM [falling, partial curve]. Under setting [1], the AC50 was 29.1 µM [falling, partial curve].

Take `c1ccc2c(c1)[nH]c1cnccc12`: the cell number change is -5.27%. In addition, the concentration at half-maximal activity (AC50) under setting [1] was 16.4 µM [rising, partial curve].

Consider `COC(=O)C1=C(c2ccc(F)cc2OCc2ccccc2)C[C@@H]2CC[C@H]1N2C(=O)NCc1ccc(C(C)(C)C)cc1`, for which the cell number change was found to be 0.0614%. Moreover, the AC50 under setting [1] is 0.731 µM [rising, single point].

Take `COCCNC(=O)N1[C@H]2CC[C@@H]1C(C(=O)OC)=C(c1ccc(OC(F)(F)F)cc1)C2`: the cell number change was -3.62%. The AC50 under setting [2] was 0.00461 µM [falling, full curve, poor fit]. Besides, the AC50 under setting [1] was 0.00461 µM [falling, full curve, poor fit].

As to `CCN(CC)C(=O)c1ccc(NC(=O)c2cc(-n3cnnc3)ccc2Cl)cc1`, the cell number change turned out to be 18.8%.

`CC(C)(C)c1ccc(C(=O)C2CCCN(Cc3ccon3)C2)cc1` (stereo not given): the cell number change is -14.8%. Further, the concentration at half-maximal activity (AC50) under setting [1] was 14.6 µM [falling, partial curve].

Take `CCC(C)n1c(O)c(/C=N/Nc2ccccc2)c(=O)[nH]c1=S` (stereo not given): the cell number change is 109%. In addition, under setting [2], the concentration at half-maximal activity (AC50) is 5.8 µM [rising, full curve].

Regarding `Cc1cc(-c2ccccc2)cc(-c2ccccc2)[n+]1CCc1ccccc1`, the cell number change is -80.8%. Moreover, the AC50 under setting [2] was 5.8 µM [falling, full curve]. In addition, under setting [1], the AC50 is 20.6 µM [falling, single point].

As for `Cc1ccsc1CNCCc1ccc(F)cc1`, the AC50 under setting [1] was 25.9 µM [rising, single point].

On to `COc1cc(C(=O)Nc2ccc(Br)cc2C(=O)c2ccccc2Cl)cc(OC)c1OC`, for which the cell number change is -2.16%. Moreover, the AC50 under setting [1] is 2.91 µM [rising, partial curve].

Turning to `CCC(C)N=Cc1c(O)n(-c2ccccc2)c(=O)[nH]c1=O` (stereo not given), the cell number change is -87.2%. Further, the AC50 under setting [2] was 32.6 µM [falling, single point]. Further, under setting [1], the AC50 is 0.00517 µM [falling, full curve, poor fit].

As for `CNC(=S)NC1CC2CCCC(C1)N2CC(C)C` (stereo not given), the cell number change was -5.75%.

Take `O=S1(=O)N(CCN2CC=C(c3c[nH]c4cc(F)ccc34)CC2)c2cccc3c2N1CCC3`: the cell number change was -10.1%. Also, the AC50 under setting [1] is 11.6 µM [falling, partial curve].

Consider `Clc1ccccc1CNC1CN2CCC1CC2` (stereo not given), for which the cell number change was -31.6%. In addition, the AC50 under setting [2] was 0.461 µM [falling, full curve, poor fit]. The AC50 under setting [1] was 3.26 µM [falling, partial curve, poor fit].

As for `CN1C(=O)C(c2ccc([N+](=O)[O-])cc2[N+](=O)[O-])C(=O)N(C)C1=O`, the cell number change was found to be 21.9%. Further, the AC50 under setting [1] is 5.8 µM [rising, partial curve].

Regarding `COc1ccc(Br)cc1CNCCc1cccc(Cl)c1`, the cell number change is -36%. The half-maximal activity concentration (AC50) under setting [2] was 8.2 µM [falling, partial curve, poor fit].

In the case of `COc1ccc(CCNCc2ccc(C)s2)cc1OC`, the cell number change is 32.3%. The concentration at half-maximal activity (AC50) under setting [2] was 0.146 µM [rising, full curve, poor fit]. For the same compound, the AC50 under setting [1] is 29.1 µM [rising, single point].

As for `O=Cc1cn(Cc2ccc(F)cc2)c2ccccc12`, the cell number change was -14.1%. Further, the AC50 under setting [1] was 18.4 µM [rising, partial curve].

Turning to `O=c1cccc2n1CC1CC2CN(Cc2cccc(Cl)c2Cl)C1` (stereo not given), the cell number change is -15.6%. Besides, the AC50 under setting [1] is 0.517 µM [falling, full curve, poor fit].

In the case of `CC(C)(C)C(=O)Nc1ccc(S(=O)(=O)N2CC3CC(C2)c2cccc(=O)n2C3)cc1` (stereo not given), the cell number change stood at 9.09%.

For the compound `Nc1cnn(-c2ccccc2)c(=O)c1Cl`, the cell number change is -10.6%. The AC50 under setting [1] is 0.13 µM [falling, full curve, poor fit].

Regarding `CC(=O)N1CC(=O)Nc2ccc(Cl)cc2C1c1ccc(F)cc1` (stereo not given), the cell number change was 15.1%. Moreover, the half-maximal activity concentration (AC50) under setting [1] is 0.0517 µM [falling, full curve, poor fit].

For `OCCNCCc1c[nH]c2ccc(OCc3ccccc3)cc12`, the cell number change was -19.4%. Also, under setting [1], the AC50 was 2.31 µM [rising, partial curve].

As for `CC(C)C(=O)Nc1ccc(S(=O)(=O)N2CC3CC(C2)c2cccc(=O)n2C3)cc1` (stereo not given), the cell number change came out at 24.5%. Under setting [1], the AC50 is 16.4 µM [falling, single point].

As for `Oc1ccc(Br)cc1CN1CCN(c2ccccc2)CC1`, the cell number change was 0.463%. In addition, the concentration at half-maximal activity (AC50) under setting [1] is 0.651 µM [falling, full curve, poor fit].

For `COc1c(C=C2C(=O)NC(=O)NC2=O)c(CCN(C)C(=O)c2ccccc2)cc2c1OCO2`, the cell number change was -4.94%. Moreover, the AC50 under setting [1] is 6.51 µM [falling, full curve, poor fit].

Take `CC(C)CNC(=O)c1c(N)n(Cc2ccco2)c2nc3ccccc3nc12`: the cell number change is -76%. Under setting [2], the AC50 is 29.1 µM [falling, single point].

Regarding `NC12CN3CN(CN(C3)C1)C2` (tested in a mixture with another compound), the cell number change was determined as 0.816%. Also, the AC50 under setting [1] was 23.1 µM [falling, partial curve].

Take `CN1C(=O)C(=Cc2ccc(N3CCOCC3)o2)C(=O)N(C)C1=O`: the cell number change was -7.23%.

As for `CNCC1(c2ccccc2)CCCC1`, the cell number change was determined as 32.6%. In addition, the AC50 under setting [2] was 1.46 µM [rising, partial curve, poor fit]. Moreover, the AC50 under setting [1] was 6.51 µM [rising, single point].

Turning to `COC(=O)c1c(C)n(Cc2ccccc2)c2ccc(O)cc12`, the cell number change is 6.56%. Under setting [1], the AC50 was 0.231 µM [rising, full curve, poor fit].

In the case of `O=[N+]([O-])c1cccc(CN2CCN(Cc3ccc(Br)cc3)CC2)c1`, the cell number change came to 29.3%. Besides, under setting [2], the AC50 was 0.116 µM [falling, partial curve, poor fit].

Turning to `c1ccc2c(CCNCc3ccc4c(c3)OCO4)c[nH]c2c1`, the cell number change is -21.7%. In addition, under setting [1], the AC50 was 29.1 µM [falling, single point].

Take `COc1cc2occc2c2oc(=O)ccc12`: the AC50 under setting [1] was 1.46 µM [rising, full curve].

With `O=C(CCNC(=O)N1C[C@H]2C[C@@H](C1)c1cccc(=O)n1C2)Nc1cccc(Cl)c1`, the cell number change was 14.8%. Besides, under setting [2], the AC50 was 0.731 µM [rising, full curve, poor fit].

Turning to `COc1ccccc1CN1CCCCC1c1cccnc1` (stereo not given), the AC50 by setting is: under setting [2], 1.64 µM [rising, partial curve, poor fit]; under setting [1], 3.66 µM [rising, full curve].

As for `CCCCc1nc(N2CCNCC2)c(C#N)c2c1CSC(C)(C)C2`, the AC50 under setting [1] is 0.58 µM [rising, single point].

For `COC(=O)CN1C(=O)C2(C(C(=O)OC)=C(N)Oc3ccccc32)C2=C1CC(C)(C)CC2=O` (stereo not given), under setting [1], the AC50 is 6.51 µM [falling, single point].

Turning to `O=C(c1ccc(N2CCCCCC2)c([N+](=O)[O-])c1)N1CCC2(CC1)OCCO2`, the cell number change stood at 13%. In addition, under setting [1], the AC50 was 0.731 µM [falling, single point].

Take `CN1CCN(c2ccc(C(N)=O)cc2N)CC1`: the cell number change is 4.23%. Further, the concentration at half-maximal activity (AC50) under setting [1] was 0.092 µM [falling, full curve, poor fit].

With `CN1CCN(Cc2nc3ccccc3n2C)CC1`, the cell number change is -2.78%. For the same compound, under setting [1], the AC50 is 0.00517 µM [falling, full curve, poor fit].

`CN1C(=O)N(C)C(=O)C2(Cc3cc(NC(=O)c4ccccc4Cl)ccc3N3CCCC32)C1=O` (stereo not given): the cell number change came to 2.65%. Besides, the AC50 under setting [2] was 2.06 µM [rising, partial curve]. The AC50 under setting [1] was 29.1 µM [rising, partial curve, poor fit].

Regarding `O=c1oc2ccccc2c(O)c1C(c1ccc([N+](=O)[O-])cc1)c1c(O)c2ccccc2oc1=O`, the cell number change was -13.3%. The AC50 under setting [2] was 1.84 µM [falling, single point]. Further, the AC50 under setting [1] was 4.11 µM [falling, single point].

As for `O=c1cc(C(F)(F)F)c2cc3c4c(c2o1)CCCN4CCC3`, the cell number change was -62.3%. Under setting [2], the AC50 is 16.4 µM [falling, single point]. Also, the AC50 under setting [1] was 20.6 µM [falling, single point].

As to `CCCOc1ccc(C(=O)NC(=S)N2C[C@H]3C[C@H](C2)c2cccc(=O)n2C3)cc1`, the cell number change was determined as 34.6%. The AC50 under setting [2] was 36.6 µM [rising, partial curve, poor fit]. Also, the AC50 under setting [1] is 0.231 µM [rising, full curve, poor fit].

For `Cc1ccc(/C=C2\C(=O)NC(=O)N(CC3CCCO3)C2=O)s1` (stereo not given), the cell number change was -11%.

Take `C(#CCN1CCOCC1)COCc1ccccc1`: the cell number change came to 39.1%. For the same compound, the AC50 under setting [2] is 3.26 µM [rising, full curve, poor fit].

Consider `O=C1c2ccccc2C(=O)N1Cc1nc2ccccc2c(=O)n1-c1cccnc1`, for which the AC50 by setting is: under setting [2], 0.82 µM [rising, full curve]; under setting [1], 0.731 µM [rising, single point].

With `C/C=C(\C)C(=O)N[C@@H](c1ccccc1)[C@@H](O)C(=O)O[C@H]1C[C@@]2(O)[C@@H](OC(=O)c3ccccc3)C3[C@](C)(C(=O)[C@H](O)C(=C1C)C2(C)C)[C@@H](O)C[C@H]1OC[C@@]31OC(C)=O` (stereo not given in full), the cell number change was determined as 1.45%. In addition, the AC50 under setting [1] is 6.51 µM [falling, single point].

With `Cc1cc(OC(=O)c2ccco2)c2c3c(c(=O)oc2c1)CCC3`, the cell number change was found to be 9.67%.

As to `CSC1=NP(=S)(SC)N2CCCC2=C1C#N` (stereo not given), the cell number change worked out at 1.35%. Further, the AC50 under setting [1] was 0.231 µM [rising, full curve, poor fit].

Regarding `Fc1ccc(CNCCc2c[nH]c3ccccc23)cc1`, the cell number change worked out at 1.1%. Also, the AC50 under setting [1] is 29.1 µM [rising, single point].

Turning to `CCOC(=O)[C@@]1(C#N)C(c2ccc(Cl)c(Cl)c2)[C@H](C(N)=O)N2C=C(C(C)=O)C=C[C@H]21` (stereo not given in full), the cell number change was -28%. For the same compound, the AC50 under setting [1] was 0.0058 µM [falling, full curve, poor fit].

Turning to `CCN(CC)c1ccc(N=Cc2c(O)[nH]c(=O)[nH]c2=O)cc1`, the cell number change was -28.3%. Besides, the AC50 under setting [1] is 0.13 µM [falling, full curve, poor fit].

Values taken from PubChem BioAssay AID2685 (National Center for Advancing Translational Sciences (NCATS), 2010).
